According to the supplement of paper PMC10849652:
Some of the results follow.

By UniProt entry, the sequences of proteins in these tests, tags left out. Where a name states a change or a piece, a line headed by the entry shows the natural chain unless it says otherwise.
UniProt P23246: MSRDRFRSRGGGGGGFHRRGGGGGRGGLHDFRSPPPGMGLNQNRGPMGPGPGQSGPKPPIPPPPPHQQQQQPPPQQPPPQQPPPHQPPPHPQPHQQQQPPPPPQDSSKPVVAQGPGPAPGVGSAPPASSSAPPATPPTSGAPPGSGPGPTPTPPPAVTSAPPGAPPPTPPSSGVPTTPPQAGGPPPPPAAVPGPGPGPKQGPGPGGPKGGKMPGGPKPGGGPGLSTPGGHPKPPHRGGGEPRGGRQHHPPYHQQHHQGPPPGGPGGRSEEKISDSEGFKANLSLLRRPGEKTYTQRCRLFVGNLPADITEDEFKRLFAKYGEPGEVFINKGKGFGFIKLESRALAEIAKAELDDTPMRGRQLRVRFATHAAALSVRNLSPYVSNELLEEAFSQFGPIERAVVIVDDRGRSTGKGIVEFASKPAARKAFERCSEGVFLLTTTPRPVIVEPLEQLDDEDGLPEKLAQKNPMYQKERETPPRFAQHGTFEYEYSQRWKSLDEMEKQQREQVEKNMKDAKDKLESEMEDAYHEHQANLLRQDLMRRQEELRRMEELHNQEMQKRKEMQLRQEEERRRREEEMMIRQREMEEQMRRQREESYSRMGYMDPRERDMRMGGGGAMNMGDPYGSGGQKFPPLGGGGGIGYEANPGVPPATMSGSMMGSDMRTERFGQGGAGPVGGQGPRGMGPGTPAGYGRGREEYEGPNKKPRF
UniProt Q8TBC3: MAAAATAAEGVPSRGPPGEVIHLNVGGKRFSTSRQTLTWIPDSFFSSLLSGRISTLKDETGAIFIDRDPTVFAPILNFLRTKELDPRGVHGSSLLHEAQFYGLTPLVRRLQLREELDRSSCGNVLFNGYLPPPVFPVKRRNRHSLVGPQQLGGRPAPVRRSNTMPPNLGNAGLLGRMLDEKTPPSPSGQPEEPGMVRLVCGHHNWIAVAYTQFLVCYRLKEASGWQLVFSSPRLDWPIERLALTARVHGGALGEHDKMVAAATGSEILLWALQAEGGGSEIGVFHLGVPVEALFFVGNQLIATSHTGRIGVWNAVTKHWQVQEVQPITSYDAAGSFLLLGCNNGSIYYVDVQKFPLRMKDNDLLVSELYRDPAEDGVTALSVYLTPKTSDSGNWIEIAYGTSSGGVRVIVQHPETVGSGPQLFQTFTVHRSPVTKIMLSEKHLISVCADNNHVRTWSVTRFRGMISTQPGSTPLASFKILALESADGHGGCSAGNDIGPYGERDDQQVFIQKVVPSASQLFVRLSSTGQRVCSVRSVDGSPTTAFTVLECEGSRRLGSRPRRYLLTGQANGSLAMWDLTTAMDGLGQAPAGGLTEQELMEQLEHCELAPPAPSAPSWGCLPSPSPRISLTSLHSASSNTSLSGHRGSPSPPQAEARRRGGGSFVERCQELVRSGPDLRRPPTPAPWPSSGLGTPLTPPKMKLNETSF
UniProt Q9H299: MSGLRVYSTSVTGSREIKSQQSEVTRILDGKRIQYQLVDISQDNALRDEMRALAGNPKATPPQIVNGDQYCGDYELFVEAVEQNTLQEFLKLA
UniProt P30740: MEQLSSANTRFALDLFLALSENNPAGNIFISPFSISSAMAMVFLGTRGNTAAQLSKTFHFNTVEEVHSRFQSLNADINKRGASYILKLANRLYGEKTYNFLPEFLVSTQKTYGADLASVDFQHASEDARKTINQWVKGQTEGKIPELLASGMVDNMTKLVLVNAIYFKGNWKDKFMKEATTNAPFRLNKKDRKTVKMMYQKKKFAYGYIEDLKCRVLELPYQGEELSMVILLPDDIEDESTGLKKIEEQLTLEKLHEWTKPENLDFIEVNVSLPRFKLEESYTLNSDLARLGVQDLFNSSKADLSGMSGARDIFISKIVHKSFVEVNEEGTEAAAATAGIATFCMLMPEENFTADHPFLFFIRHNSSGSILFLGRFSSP
UniProt Q587I9: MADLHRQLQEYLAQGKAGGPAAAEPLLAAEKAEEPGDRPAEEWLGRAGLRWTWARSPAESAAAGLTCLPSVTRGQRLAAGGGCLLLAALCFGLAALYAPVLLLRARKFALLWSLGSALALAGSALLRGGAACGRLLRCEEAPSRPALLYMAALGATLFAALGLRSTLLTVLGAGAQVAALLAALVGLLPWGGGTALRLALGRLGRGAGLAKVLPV
UniProt Q9Y3B4: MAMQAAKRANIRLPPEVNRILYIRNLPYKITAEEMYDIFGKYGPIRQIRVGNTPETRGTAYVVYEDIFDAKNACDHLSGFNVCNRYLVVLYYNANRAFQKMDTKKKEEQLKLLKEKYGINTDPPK
UniProt Q9UGP8: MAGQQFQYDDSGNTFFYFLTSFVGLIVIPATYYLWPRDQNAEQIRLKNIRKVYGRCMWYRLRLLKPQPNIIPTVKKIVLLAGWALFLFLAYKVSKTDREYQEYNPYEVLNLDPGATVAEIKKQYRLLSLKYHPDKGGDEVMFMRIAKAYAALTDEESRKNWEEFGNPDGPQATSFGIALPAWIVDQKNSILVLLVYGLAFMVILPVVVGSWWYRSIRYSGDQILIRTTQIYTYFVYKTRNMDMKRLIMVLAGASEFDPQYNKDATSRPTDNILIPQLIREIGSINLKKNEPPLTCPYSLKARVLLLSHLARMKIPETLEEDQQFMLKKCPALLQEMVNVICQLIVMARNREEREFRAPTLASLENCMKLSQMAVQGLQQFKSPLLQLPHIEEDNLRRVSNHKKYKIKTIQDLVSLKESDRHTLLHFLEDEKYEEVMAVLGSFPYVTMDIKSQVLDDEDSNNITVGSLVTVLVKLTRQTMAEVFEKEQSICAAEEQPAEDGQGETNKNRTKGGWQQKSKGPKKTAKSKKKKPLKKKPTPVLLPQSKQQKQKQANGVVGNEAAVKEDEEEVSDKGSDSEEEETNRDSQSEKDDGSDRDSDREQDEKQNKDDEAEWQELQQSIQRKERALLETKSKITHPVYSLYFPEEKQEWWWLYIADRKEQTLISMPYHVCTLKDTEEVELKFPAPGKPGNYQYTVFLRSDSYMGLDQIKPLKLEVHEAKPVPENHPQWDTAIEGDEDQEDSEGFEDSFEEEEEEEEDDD
UniProt Q7L8J4: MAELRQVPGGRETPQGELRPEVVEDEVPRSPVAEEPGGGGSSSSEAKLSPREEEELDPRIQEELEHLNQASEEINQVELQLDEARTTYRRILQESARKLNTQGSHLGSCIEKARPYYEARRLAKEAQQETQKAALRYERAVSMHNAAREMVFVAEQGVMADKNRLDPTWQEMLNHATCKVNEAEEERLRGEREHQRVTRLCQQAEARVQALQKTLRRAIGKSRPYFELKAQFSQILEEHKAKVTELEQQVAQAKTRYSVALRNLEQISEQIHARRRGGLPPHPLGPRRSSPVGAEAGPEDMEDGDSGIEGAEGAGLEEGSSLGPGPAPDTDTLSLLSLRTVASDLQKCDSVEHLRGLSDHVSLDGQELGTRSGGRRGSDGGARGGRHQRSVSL
UniProt P08697: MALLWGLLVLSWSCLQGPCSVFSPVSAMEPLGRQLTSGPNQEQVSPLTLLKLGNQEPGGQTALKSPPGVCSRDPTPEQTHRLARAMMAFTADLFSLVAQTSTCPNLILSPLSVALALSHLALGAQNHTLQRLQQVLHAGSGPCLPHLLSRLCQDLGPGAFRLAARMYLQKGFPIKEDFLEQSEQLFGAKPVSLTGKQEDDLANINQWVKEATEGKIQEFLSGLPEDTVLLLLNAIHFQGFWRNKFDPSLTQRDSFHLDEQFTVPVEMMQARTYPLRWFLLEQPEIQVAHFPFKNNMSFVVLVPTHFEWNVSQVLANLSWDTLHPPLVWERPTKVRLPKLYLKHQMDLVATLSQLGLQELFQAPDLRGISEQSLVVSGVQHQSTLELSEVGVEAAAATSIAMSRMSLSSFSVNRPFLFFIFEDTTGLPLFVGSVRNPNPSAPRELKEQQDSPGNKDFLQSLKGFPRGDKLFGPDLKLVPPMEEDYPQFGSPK
UniProt Q99720, whole entry, looked up: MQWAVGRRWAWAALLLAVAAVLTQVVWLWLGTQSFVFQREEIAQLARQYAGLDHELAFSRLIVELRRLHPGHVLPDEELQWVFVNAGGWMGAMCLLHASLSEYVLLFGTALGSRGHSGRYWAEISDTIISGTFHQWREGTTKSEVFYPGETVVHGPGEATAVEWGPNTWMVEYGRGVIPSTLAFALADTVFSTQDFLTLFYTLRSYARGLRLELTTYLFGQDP
UniProt O43236: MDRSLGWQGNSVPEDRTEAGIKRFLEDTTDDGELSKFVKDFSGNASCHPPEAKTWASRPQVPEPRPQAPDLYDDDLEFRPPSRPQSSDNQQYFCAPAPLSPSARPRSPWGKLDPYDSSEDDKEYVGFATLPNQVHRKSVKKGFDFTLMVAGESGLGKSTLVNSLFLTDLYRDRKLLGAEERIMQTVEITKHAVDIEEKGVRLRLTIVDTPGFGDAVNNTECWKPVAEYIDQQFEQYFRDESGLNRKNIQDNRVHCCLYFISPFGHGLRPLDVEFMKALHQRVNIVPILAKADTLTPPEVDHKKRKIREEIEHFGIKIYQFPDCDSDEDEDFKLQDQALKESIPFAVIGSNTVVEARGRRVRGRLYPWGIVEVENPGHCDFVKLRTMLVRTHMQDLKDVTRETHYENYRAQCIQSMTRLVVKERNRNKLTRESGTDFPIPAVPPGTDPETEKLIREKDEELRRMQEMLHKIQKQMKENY
UniProt Q15393: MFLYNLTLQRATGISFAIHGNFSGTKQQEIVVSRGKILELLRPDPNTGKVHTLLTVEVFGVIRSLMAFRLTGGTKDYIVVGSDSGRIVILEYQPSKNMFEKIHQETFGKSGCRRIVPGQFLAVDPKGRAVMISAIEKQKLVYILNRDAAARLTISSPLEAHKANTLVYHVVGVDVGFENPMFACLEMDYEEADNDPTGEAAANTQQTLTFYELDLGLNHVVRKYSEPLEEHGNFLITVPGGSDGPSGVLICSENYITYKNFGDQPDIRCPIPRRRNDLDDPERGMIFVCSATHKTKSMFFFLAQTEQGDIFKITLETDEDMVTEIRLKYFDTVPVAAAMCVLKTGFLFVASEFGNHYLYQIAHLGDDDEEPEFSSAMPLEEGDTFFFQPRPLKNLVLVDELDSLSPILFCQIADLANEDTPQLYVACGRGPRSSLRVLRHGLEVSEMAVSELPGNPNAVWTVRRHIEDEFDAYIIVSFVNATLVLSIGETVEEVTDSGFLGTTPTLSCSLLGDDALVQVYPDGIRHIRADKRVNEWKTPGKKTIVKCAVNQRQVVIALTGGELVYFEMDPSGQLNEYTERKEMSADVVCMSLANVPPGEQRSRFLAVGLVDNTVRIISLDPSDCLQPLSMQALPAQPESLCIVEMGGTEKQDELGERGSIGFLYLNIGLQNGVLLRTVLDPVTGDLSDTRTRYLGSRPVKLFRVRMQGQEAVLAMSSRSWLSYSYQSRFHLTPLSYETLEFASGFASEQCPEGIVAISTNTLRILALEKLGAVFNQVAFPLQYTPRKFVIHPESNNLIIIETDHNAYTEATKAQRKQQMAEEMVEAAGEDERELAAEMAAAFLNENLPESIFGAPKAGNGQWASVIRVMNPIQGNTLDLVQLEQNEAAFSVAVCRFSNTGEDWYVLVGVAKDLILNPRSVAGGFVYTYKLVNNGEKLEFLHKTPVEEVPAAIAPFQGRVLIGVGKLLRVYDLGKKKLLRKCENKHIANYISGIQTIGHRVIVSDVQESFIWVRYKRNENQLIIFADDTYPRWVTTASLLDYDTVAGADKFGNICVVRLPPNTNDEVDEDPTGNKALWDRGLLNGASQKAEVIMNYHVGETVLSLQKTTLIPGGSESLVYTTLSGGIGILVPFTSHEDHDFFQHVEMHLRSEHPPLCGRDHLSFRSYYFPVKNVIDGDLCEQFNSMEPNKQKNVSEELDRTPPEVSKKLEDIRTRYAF
UniProt Q9H173: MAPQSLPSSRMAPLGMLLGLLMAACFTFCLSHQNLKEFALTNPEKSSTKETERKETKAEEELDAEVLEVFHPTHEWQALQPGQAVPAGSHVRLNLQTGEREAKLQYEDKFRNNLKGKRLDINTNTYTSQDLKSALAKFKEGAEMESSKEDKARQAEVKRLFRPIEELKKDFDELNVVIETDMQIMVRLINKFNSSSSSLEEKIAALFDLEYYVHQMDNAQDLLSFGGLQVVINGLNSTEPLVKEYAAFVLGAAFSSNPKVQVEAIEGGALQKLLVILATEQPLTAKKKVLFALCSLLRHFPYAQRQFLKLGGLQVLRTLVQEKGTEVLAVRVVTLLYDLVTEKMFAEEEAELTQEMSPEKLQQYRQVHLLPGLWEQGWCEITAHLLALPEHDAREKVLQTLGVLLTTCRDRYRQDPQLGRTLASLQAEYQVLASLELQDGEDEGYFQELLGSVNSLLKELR
UniProt Q9UJC5: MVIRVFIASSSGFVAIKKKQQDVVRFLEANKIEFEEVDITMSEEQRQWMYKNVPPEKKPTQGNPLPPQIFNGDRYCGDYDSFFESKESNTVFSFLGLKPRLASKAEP

Legend:
Assay in all cases: log2 fold change, soluble protein after heating vs DMSO (PISA); higher = thermal stabilisation; K562 cells, 10 uM, 30 min; active = over 0.2 and 3.5 SD of the protein, either way, in both replicates (recomputed)
[1] = compound: CC[C@@H]1C(=O)N(C)c2cnc(Nc3ccc(C(=O)NC4CCN(C)CC4)cc3OC)nc2N1C1CCCC1
Outline: (§1)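 K562 cells at 2×10^6 cells/mL were treated with 10 μM compound for 30 min. Aliquots were heated for 3 min across 48°C-58°C, pooled, and extracted in PBS with 0.5% NP-40 at 4°C; soluble protein was the supernatant after 21,000xg for 90 min. Soluble protein was quantified by TMTpro 16plex LC-MS/MS with channel sums equalised, and reported as log2 fold change in thermal stability against DMSO controls, with values from duplicates.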

volasertib = compound: CC[C@@H]1C(=O)N(C)c2cnc(Nc3ccc(C(=O)N[C@H]4CC[C@H](N5CCN(CC6CC6)CC5)CC4)cc3OC)nc2N1C(C)C [volasertib]
Outline: as §1

[2] = compound: CC[C@H](C)N1C=C(C2=C(C=C(C=C21)C3=CN=C(C=C3)N4CCNCC4)C(=O)NCC5=C(C=C(NC5=O)C)C)C
Outline: as §1

epoxomicin = compound: CC[C@H](C)[C@@H](C(=O)N[C@@H]([C@@H](C)O)C(=O)N[C@@H](CC(C)C)C(=O)[C@]1(CO1)C)NC(=O)[C@H]([C@@H](C)CC)N(C)C(=O)C [epoxomicin]
Outline: as §1

[3] = compound: CCn1c(C(=O)N(C2CC2)C2CC2)cc2c3c(ncn3C)c(Nc3cc(C)n(C)n3)nc21
Outline: as §1

[4] = compound: CCn1cc(-c2ccnc3[nH]c(-c4cccc(CN(C)C)c4)cc23)c(-c2ccc(NC(=O)N(C)C)cc2)n1
Outline: as §1

[5] = compound: CN(C)CC(=O)Nc1ccc2[nH]c(=O)c3ccccc3c2c1
Outline: as §1

rosiglitazone = compound: CN(CCOC1=CC=C(C=C1)C[C@H]2C(=O)NC(=O)S2)C3=CC=CC=N3 (racemic) [rosiglitazone]
Outline: as §1

[6] = compound: CN1C2=C(C3=C1C(=O)N(N=C3)CC4=CC(=CC=C4)N)SC(=C2)S(=O)C
Outline: as §1

[7] = compound: CN1CCC(CNc2ccc3ncc(-c4cccc(OC(F)(F)F)c4)n3n2)CC1
Outline: as §1

saracatinib = compound: CN1CCN(CCOc2cc(OC3CCOCC3)c3c(Nc4c(Cl)ccc5c4OCO5)ncnc3c2)CC1 [saracatinib]
Outline: as §1

sotrastaurin = compound: CN1CCN(c2nc(C3=C(c4c[nH]c5ccccc45)C(=O)NC3=O)c3ccccc3n2)CC1 [sotrastaurin]
Outline: as §1

alvocidib = compound: CN1CC[C@H](c2c(O)cc(O)c3c(=O)cc(-c4ccccc4Cl)oc23)[C@H](O)C1 [alvocidib]
Outline: as §1

Tubastatin A = compound: CN1CCc2c(c3ccccc3n2Cc2ccc(C(=O)NO)cc2)C1 [Tubastatin A]
Outline: as §1

[8] = compound: CNC(=O)C1=CC=CC=C1NC2=NC(=NC=C2Cl)NC3=C(C=C(C=C3)N4CCOCC4)OC
Outline: as §1

defactinib = compound: CNC(=O)c1ccc(Nc2ncc(C(F)(F)F)c(NCc3nccnc3N(C)S(C)(=O)=O)n2)cc1 [defactinib]
Outline: as §1

rucaparib = compound: CNCc1ccc(-c2[nH]c3cc(F)cc4c3c2CCNC4=O)cc1 [rucaparib]
Outline: as §1

[9] = compound: CNc1nc(-c2ccc3c(N)n[nH]c3c2)cc(N2C[C@@H](C(=O)NC3CCCCC3)CC[C@H]2C)n1
Outline: as §1

encorafenib = compound: COC(=O)N[C@@H](C)CNc1nccc(-c2cn(C(C)C)nc2-c2cc(Cl)cc(NS(C)(=O)=O)c2F)n1 [encorafenib]
Outline: as §1

[10] = compound: COC(=O)[C@H](CCSC)NC(=O)C1=C(C=C(C=C1)NC[C@H](CS)N)C2=CC=CC=C2
Outline: as §1

Measured: log2 fold change

SFPQ (UniProt P23246)
inactive: [1] 0.046 | volasertib -0.09 | [2] 0.028 | epoxomicin -0.118 | [3] -0.031 | [4] 0.094 | [5] -0.03 | rosiglitazone -0.051 | [6] 0.128 | [7] 0.068 | saracatinib -0.043 | sotrastaurin -0.083 | alvocidib 0.036 | Tubastatin A 0.01 | [8] -0.019 | defactinib 0.077 | rucaparib 0.227 | [9] -0.026 | encorafenib 0.099 | [10] 0.008

SHKBP1 (UniProt Q8TBC3)
inactive: [1] 0.019 | volasertib 0.07 | [2] -0.018 | epoxomicin 0.026 | [3] -0.049 | [4] 0.027 | [5] -0.043 | rosiglitazone 0.008 | [6] -0.055 | [7] 0.034 | saracatinib 0.046 | sotrastaurin 0.06 | alvocidib -0.004 | Tubastatin A -0.02 | [8] 0.014 | defactinib 0.036 | rucaparib -0.059 | [9] -0.03 | encorafenib -0.004 | [10] -0.029

SH3BGRL3 (UniProt Q9H299)
inactive: [1] -0.004 | volasertib 0 | [2] -0.034 | epoxomicin 0.018 | [3] 0.013 | [4] 0.007 | [5] -0.023 | rosiglitazone 0.016 | [6] -0.047 | [7] -0.048 | saracatinib 0.02 | sotrastaurin -0.042 | alvocidib -0.032 | Tubastatin A -0.01 | [8] 0.013 | defactinib -0.003 | rucaparib -0.03 | [9] 0.006 | encorafenib 0.021 | [10] 0.023

SLAIN2 (UniProt Q9P270)
inactive: [1] 0.067 | volasertib 0.139 | [2] -0.046 | epoxomicin -0.014 | [3] -0.023 | [4] 0.046 | [5] -0.027 | rosiglitazone -0.015 | [6] 0.086 | [7] 0.115 | saracatinib -0.03 | sotrastaurin 0.023 | alvocidib -0.027 | Tubastatin A 0.037 | [8] -0.003 | defactinib 0.03 | rucaparib 0.024 | [9] -0.03 | encorafenib -0.011 | [10] 0.064

SERPINB1 (UniProt P30740)
inactive: [1] -0.006 | volasertib 0.01 | [2] 0.038 | epoxomicin 0.041 | [3] 0.047 | [4] -0.065 | [5] -0.004 | rosiglitazone 0.032 | [6] -0.074 | [7] 0.006 | saracatinib 0.028 | sotrastaurin 0.004 | alvocidib -0.033 | Tubastatin A -0.012 | [8] -0.01 | defactinib -0.01 | rucaparib -0.034 | [9] 0.006 | encorafenib -0.017 | [10] 0.035

SFT2D3 (UniProt Q587I9)
inactive: [1] 0.018 | volasertib 0.063 | [2] -0.041 | epoxomicin 0.003 | [3] 0.014 | [4] 0.106 | [5] 0.052 | rosiglitazone 0.238 | [6] -0.096 | [7] 0.193 | saracatinib 0.018 | sotrastaurin -0.011 | alvocidib 0.014 | Tubastatin A 0.01 | [8] 0.072 | defactinib 0.027 | rucaparib -0.043 | [9] 0.012 | encorafenib -0.047 | [10] -0.071

SF3B6 (UniProt Q9Y3B4)
inactive: [1] 0.1 | volasertib -0.12 | [2] 0.036 | epoxomicin -0.259 | [3] -0.027 | [4] 0.051 | [5] 0.016 | rosiglitazone 0.063 | [6] 0.036 | [7] -0.084 | saracatinib -0.036 | sotrastaurin 0 | alvocidib -0.046 | Tubastatin A 0.133 | [8] -0.035 | defactinib -0.09 | rucaparib 0.119 | [9] 0.008 | encorafenib 0.066 | [10] 0.043

SEC63 (UniProt Q9UGP8)
inactive: [1] 0.051 | volasertib 0.049 | [2] 0.017 | epoxomicin -0.007 | [3] -0.024 | [4] -0.038 | [5] -0.018 | rosiglitazone 0.027 | [6] -0.064 | [7] 0.107 | saracatinib 0.043 | sotrastaurin 0.02 | alvocidib -0.004 | Tubastatin A -0.017 | [8] -0.001 | defactinib -0.019 | rucaparib -0.015 | [9] -0.015 | encorafenib 0.006 | [10] -0.002

SH3BP5L (UniProt Q7L8J4)
inactive: [1] -0.02 | volasertib -0.039 | [2] -0.036 | epoxomicin 0.008 | [3] -0.088 | [4] 0.123 | [5] 0.056 | rosiglitazone 0.08 | [6] 0.029 | [7] 0.13 | saracatinib -0.01 | sotrastaurin -0.408 | alvocidib -0.01 | Tubastatin A 0.018 | [8] 0.016 | defactinib -0.064 | rucaparib 0 | [9] 0.152 | encorafenib 0.095 | [10] -0.001

SERPINF2 (UniProt P08697)
inactive: [1] -0.017 | volasertib -0.01 | [2] -0.163 | epoxomicin -0.378 | [3] -0.213 | [4] 0.001 | [5] -0.03 | rosiglitazone -0.173 | [6] 0.16 | [7] -0.097 | saracatinib 0.225 | sotrastaurin 0.14 | alvocidib 0.038 | Tubastatin A -0.118 | [8] -0.008 | defactinib -0.077 | rucaparib -0.101 | [9] -0.049 | encorafenib 0.039 | [10] 0.123

SIGMAR1 (UniProt Q99720)
inactive: [1] 0.017 | volasertib 0.025 | [2] -0.032 | epoxomicin 0.01 | [3] -0.03 | [4] -0.128 | [5] -0.017 | rosiglitazone 0.034 | [6] -0.053 | [7] 0.069 | saracatinib 0.08 | sotrastaurin -0.008 | alvocidib -0.007 | Tubastatin A -0.028 | [8] -0.034 | defactinib 0.035 | rucaparib -0.07 | [9] -0.057 | encorafenib -0.001 | [10] 0.106

SIRT1 (UniProt Q96EB6)
inactive: [1] -0.102 | volasertib 0.203 | [2] 0.056 | epoxomicin -0.041 | [3] 0.024 | [4] 0 | [5] 0.015 | rosiglitazone 0.001 | [6] -0.017 | [7] 0.011 | saracatinib 0.015 | sotrastaurin -0.012 | alvocidib -0.09 | Tubastatin A 0.042 | [8] 0.04 | defactinib -0.151 | rucaparib 0.007 | [9] 0.04 | encorafenib -0.049 | [10] -0.021

SEPTIN4 isoform 4 (UniProt O43236)
inactive: [1] 0.143 | volasertib -0.022 | [2] 0.023 | epoxomicin 0.052 | [3] 0.042 | [4] -0.05 | [5] 0.112 | rosiglitazone -0.003 | [6] -0.051 | [7] -0.007 | saracatinib 0.106 | sotrastaurin -0.135 | alvocidib -0.196 | Tubastatin A 0.052 | [8] 0.033 | defactinib -0.033 | rucaparib -0.35 | [9] 0.019 | encorafenib 0.283 | [10] -0.049

Retrieved one by one from the entries so far (two):
SERPINB1 (UniProt P30740)
inactive: [1] -0.006 | volasertib 0.01 | [2] 0.038 | epoxomicin 0.041 | [3] 0.047 | [4] -0.065 | [5] -0.004 | rosiglitazone 0.032 | [6] -0.074 | [7] 0.006 | saracatinib 0.028 | sotrastaurin 0.004 | alvocidib -0.033 | Tubastatin A -0.012 | [8] -0.01 | defactinib -0.01 | rucaparib -0.034 | [9] 0.006 | encorafenib -0.017 | [10] 0.035

SHKBP1 (UniProt Q8TBC3)
inactive: [1] 0.019 | volasertib 0.07 | [2] -0.018 | epoxomicin 0.026 | [3] -0.049 | [4] 0.027 | [5] -0.043 | rosiglitazone 0.008 | [6] -0.055 | [7] 0.034 | saracatinib 0.046 | sotrastaurin 0.06 | alvocidib -0.004 | Tubastatin A -0.02 | [8] 0.014 | defactinib 0.036 | rucaparib -0.059 | [9] -0.03 | encorafenib -0.004 | [10] -0.029

The results go on.

SF3B3 (UniProt Q15393)
inactive: [1] 0.02 | volasertib -0.087 | [2] 0.001 | epoxomicin 0.009 | [3] -0.019 | [4] 0.016 | [5] -0.012 | rosiglitazone -0.021 | [6] -0.022 | [7] 0.072 | saracatinib 0.009 | sotrastaurin 0.009 | alvocidib 0.008 | Tubastatin A -0.005 | [8] 0.017 | defactinib 0.058 | rucaparib 0.011 | [9] -0.007 | encorafenib 0.016 | [10] -0.045

SIL1 (UniProt Q9H173)
inactive: [1] 0.01 | volasertib -0.046 | [2] -0.035 | epoxomicin 0.096 | [3] 0.01 | [4] 0.035 | [5] -0.039 | rosiglitazone -0.047 | [6] 0.055 | [7] 0.106 | saracatinib -0.012 | sotrastaurin -0.026 | alvocidib 0.05 | Tubastatin A 0.049 | [8] 0.013 | defactinib -0.069 | rucaparib 0.04 | [9] -0.021 | encorafenib 0.071 | [10] 0.037

SH3BGRL2 (UniProt Q9UJC5)
inactive: [1] 0.084 | volasertib -0.018 | [2] 0.066 | epoxomicin -0.01 | [3] 0.025 | [4] -0.059 | [5] 0.076 | rosiglitazone -0.026 | [6] -0.131 | [7] 0.007 | saracatinib -0.002 | sotrastaurin 0.033 | alvocidib -0.15 | Tubastatin A -0.017 | [8] 0.041 | defactinib -0.012 | rucaparib 0.135 | [9] -0.097 | encorafenib 0 | [10] -0.076
